Values from PubChem BioAssay AID504793 (Drosophila RNAi Screening Center, 2011)
The screen tested about 23,000 reagents; this is a random part of those with a known target gene and a result. In the full data, 62 (0.27%) were called active. 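Calls come from follow-up tests whose scores are not deposited, so confirmed genes may have low counts here; counts are not normalised per plate.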 Raw values are not corrected between plates. A plus sign joins genes that one reagent is predicted to hit.

Purpose: 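Whole-genome screen for parts of the DNA damage checkpoint at G2/M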 (primary screen)
Cell system: Drosophila S2R+ cells
Reagents: long dsRNA against Drosophila genes, about 0.25 µg dsRNA per well
Time to read-out: 4 days of dsRNA, then 4 hours of drug before read-out
Challenge: doxorubicin 0.5 µM for 4 hours to cause double-strand breaks, in cells also given a low, harmless dose of dsRNA against nbs to sensitise the assay
Detection: 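Per-well count of mitotic cells stained for phospho-histone H3 after doxorubicin exposure, used as mitotic index; counts are raw and not normalised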
Reading the numbers: mitotic cells: higher = more cells in mitosis, weaker G2 arrest
Active means: 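a call needs confirmation in secondary tests, with other dsRNAs and a check of mitotic timing without damage, not just a high primary count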
Meaning of the calls: active = confirmed in follow-up tests; inactive = not confirmed

no.	target gene	DRSC id	mitotic cells, replicate 1	mitotic cells, replicate 2	Outcome
1	Syn1 (GeneID 40424)	DRSC11803	1		inactive
2	Syn1 (GeneID 40424)	DRSC11804	7		inactive
3	Syn1 (GeneID 40424)	DRSC30039	8		inactive
4	CG13148 (GeneID 36398)	DRSC06275	2		inactive
5	Alp5 (GeneID 42482)	DRSC14269	10		inactive
6	Alp5 (GeneID 42482)	DRSC29539	6		inactive
7	mRpL3 (GeneID 32523)	DRSC20100	7		inactive
8	Rdh (GeneID 2769007)	DRSC08063	4		inactive
9	Phae2 (GeneID 34638)	DRSC02555	2		inactive
10	mtgo (GeneID 34987)	DRSC02769	5		inactive
11	mtgo (GeneID 34987)	DRSC21392	11		inactive
12	mtgo (GeneID 34987)	DRSC21743	11		inactive
13	mtgo (GeneID 34987)	DRSC27702	4		inactive
14	ome (GeneID 44297)	DRSC09322	14		inactive
15	ome (GeneID 44297)	DRSC10282	4		inactive
16	ome (GeneID 44297)	DRSC11380	4		inactive
17	CG7029 (GeneID 42703)	DRSC16177	12		inactive
18	CG7029 (GeneID 42703)	DRSC23898	9		inactive
19	Atx2 (GeneID 41883)	DRSC23010	19		inactive
20	CG11696 (GeneID 32104)	DRSC19417	6		inactive
21	CG4213 (GeneID 33209)	DRSC00641	4		inactive
22	Nnp-1 (GeneID 44391)	DRSC02165	5		inactive
23	Nnp-1 (GeneID 44391)	DRSC29816	10		inactive
24	CG15650 (GeneID 37373)	DRSC04241	5		inactive
25	CG3823 (GeneID 31573)	DRSC18325	8		inactive
26	CG3823 (GeneID 31573)	DRSC26025	11		inactive
27	CG7523 (GeneID 42125)	DRSC16254	7		inactive
28	Alp6 (GeneID 35981)	DRSC06710	4		inactive
29	CG6425 (GeneID 43216)	DRSC16038	7		inactive
30	Polr3A (GeneID 32524)	DRSC19766	5		inactive
31	CG3527 (GeneID 31387)	DRSC18307	12		inactive
32	CG3527 (GeneID 31387)	DRSC28450	1		inactive
33	elfless (GeneID 35076)	DRSC02451	6		inactive
34	CG5946 (GeneID 39336)	DRSC10560	5		inactive
35	CG9500 (GeneID 33888)	DRSC03237	1		inactive
36	Pp1alpha-96A (GeneID 42922)	DRSC16795	9		inactive
37	Pp1alpha-96A (GeneID 42922)	DRSC23320	7		inactive
38	Pp1alpha-96A (GeneID 42922)	DRSC25667	4		inactive
39	spn-E (GeneID 41919)	DRSC17064	5		inactive
40	CG11275 (GeneID 37534)	DRSC04095	5		inactive
41	Nhe3 (GeneID 33939)	DRSC03380	6		inactive
42	Clamp (GeneID 35445)	DRSC03718	3		inactive
43	Clamp (GeneID 35445)	DRSC21682	8		inactive
44	Clamp (GeneID 35445)	DRSC29935	8		inactive
45	Efhc1.2 (GeneID 37284)	DRSC06027	3		inactive
46	TMEM216 + CG11760	DRSC14375	8		inactive
47	CG33061 (GeneID 318838)	DRSC09938	3		inactive
48	CG33061 (GeneID 318838)	DRSC22897	10		inactive
49	CG5653 (GeneID 39024)	DRSC10534	4		inactive
50	CG5653 (GeneID 39024)	DRSC29858	4		inactive
51	CG15891 + CG15892	DRSC18095	4		inactive
52	CG15891 + CG15892	DRSC18096	8		inactive
53	CG14442 (GeneID 31609)	DRSC25040	3		inactive
54	CG1738 (GeneID 32075)	DRSC19772	9		inactive
55	CG1738 (GeneID 32075)	DRSC29312	3		inactive
56	CG6870 (GeneID 35067)	DRSC02998	3		inactive
57	CG6870 (GeneID 35067)	DRSC25586	6		inactive
58	Or42b (GeneID 35516)	DRSC04913	8		inactive
59	Or42b (GeneID 35516)	DRSC27273	10		inactive
60	CG14756 (GeneID 35798)	DRSC06491	6		inactive
61	CG14756 (GeneID 35798)	DRSC24808	4		inactive
62	Dysb (GeneID 40052)	DRSC10730	7		inactive
63	RabX2 (GeneID 31971)	DRSC18234	10		inactive
64	CG7518 (GeneID 41599)	DRSC16253	7		inactive
65	CG7518 (GeneID 41599)	DRSC29146	7		inactive
66	CG43894 (GeneID 39464)	DRSC10123	2		inactive
67	CG43894 (GeneID 39464)	DRSC25029	8		inactive
68	PGRP-SB1 (GeneID 39870)	DRSC11090	7		inactive
69	CG13606 (GeneID 42873)	DRSC14609	21		inactive
70	hll (GeneID 34822)	DRSC01944	6		inactive
71	PGRP-SC1a (GeneID 35859)	DRSC06482	9		inactive
72	CG30384 (GeneID 246584)	DRSC06032	11		inactive
73	asf1 (GeneID 40141)	DRSC11324	14		inactive
74	asf1 (GeneID 40141)	DRSC24067	7		inactive
75	msopa (GeneID 45962)	DRSC23240	2		inactive
76	mRpS6 (GeneID 38535)	DRSC08470	5		inactive
77	mRpS6 (GeneID 38535)	DRSC29280	3		inactive
78	CG3894 (GeneID 37959)	DRSC01762	14		inactive
79	CG3894 (GeneID 37959)	DRSC04012	9		inactive
80	CG3894 (GeneID 37959)	DRSC04429	10		inactive
81	CG10970 (GeneID 31830)	DRSC17772	6		inactive
82	pds5 (GeneID 36286)	DRSC06670	4		inactive
83	CG13862 (GeneID 42610)	DRSC14712	8		inactive
84	Idgf2 (GeneID 34979)	DRSC03350	7		inactive
85	Idgf2 (GeneID 34979)	DRSC26630	2		inactive
86	CG3631 (GeneID 41797)	DRSC15503	7		inactive
87	CG3631 (GeneID 41797)	DRSC29768	9		inactive
88	Smyd4-2 (GeneID 39414)	DRSC10126	1		inactive
89	Smyd4-2 (GeneID 39414)	DRSC25934	4		inactive
90	His2B:CG33894 + His2B:CG33872 + His2B:CG33902 + 20 more	DRSC21265	3		inactive
91	Send2 (GeneID 34836)	DRSC01906	2		inactive
92	scb (GeneID 36692)	DRSC05542	6		inactive
93	scb (GeneID 36692)	DRSC07678	7		inactive
94	CG14669 (GeneID 40652)	DRSC12255	5		inactive
95	CG14669 (GeneID 40652)	DRSC26823	117		inactive
96	CCT2 (GeneID 31838)	DRSC18415	163		inactive
97	CCT2 (GeneID 31838)	DRSC27831	2		inactive
98	Tomosyn (GeneID 32217)	DRSC19365	7		inactive
99	Tomosyn (GeneID 32217)	DRSC19692	5		inactive
100	Tomosyn (GeneID 32217)	DRSC19782	10		inactive
101	Tomosyn (GeneID 32217)	DRSC19842	11	6	inactive
102	Tomosyn (GeneID 32217)	DRSC25047	19		inactive
103	Gycbeta100B (GeneID 43682)	DRSC14039	24		inactive
104	Gycbeta100B (GeneID 43682)	DRSC14040	22		inactive
105	Gycbeta100B (GeneID 43682)	DRSC16691	3		inactive
106	Gycbeta100B (GeneID 43682)	DRSC28797	11		inactive
107	Dph2 (GeneID 41802)	DRSC16222	5		inactive
108	Dph2 (GeneID 41802)	DRSC26401	7		inactive
109	RpL39 (GeneID 37849)	DRSC04651	6		inactive
110	CG14929 + CG4970 + CG14930	DRSC02412	5		inactive
111	CG42816 + CG42815	DRSC11230	2		inactive
112	insv (GeneID 33441)	DRSC00579	1		inactive
113	insv (GeneID 33441)	DRSC28219	7		inactive
114	nompC (GeneID 33768)	DRSC03581	5		inactive
115	eIF3f1 (GeneID 40587)	DRSC12328	6		inactive
116	eIF3f1 (GeneID 40587)	DRSC26155	3		inactive
117	ste24a (GeneID 36908)	DRSC07314	3		inactive
118	ste24a (GeneID 36908)	DRSC26491	8		inactive
119	Usp47 (GeneID 38644)	DRSC11313	5		inactive
120	CG15617 (GeneID 36871)	DRSC06570	6		inactive
121	CG15617 (GeneID 36871)	DRSC27918	9		inactive
122	CG2924 (GeneID 31214)	DRSC18525	2		inactive
123	CG2924 (GeneID 31214)	DRSC28336	7		inactive
124	Itpr (GeneID 40664)	DRSC12354	3		inactive
125	Itpr (GeneID 40664)	DRSC28770			inactive
126	CG4887 (GeneID 33304)	DRSC00670	4		inactive
127	CG4887 (GeneID 33304)	DRSC21563	1		inactive
128	CG4887 (GeneID 33304)	DRSC25723	3		inactive
129	CG4074 + CG4186	DRSC11753	3		inactive
130	CG16736 (GeneID 41101)	DRSC15145	4		inactive
131	GAA1 (GeneID 31517)	DRSC18267	8		inactive
132	PIP5K59B (GeneID 37633)	DRSC04290	8		inactive
133	PIP5K59B (GeneID 37633)	DRSC04403	6		inactive
134	KCNQ (GeneID 36071)	DRSC06121	6		inactive
135	KCNQ (GeneID 36071)	DRSC06230	6		inactive
136	KCNQ (GeneID 36071)	DRSC25242	7		inactive
137	Gr43a (GeneID 35655)	DRSC06658	1		inactive
138	CG32755 (GeneID 318192)	DRSC18397	17		inactive
139	CG32755 (GeneID 318192)	DRSC27494	4		inactive
140	Dscam3 (GeneID 42103)	DRSC14525	12		inactive
141	Dscam3 (GeneID 42103)	DRSC16376	4		inactive
